Results published in patent US5939601.

Chains of the proteins cited; added tags and fusions are not shown. Chains listed by the source or under a name are the forms on record and can include a tag or linker.
Myb1 (tobacco Myb homologue) (Nicotiana tabacum), one chain, as listed by the source: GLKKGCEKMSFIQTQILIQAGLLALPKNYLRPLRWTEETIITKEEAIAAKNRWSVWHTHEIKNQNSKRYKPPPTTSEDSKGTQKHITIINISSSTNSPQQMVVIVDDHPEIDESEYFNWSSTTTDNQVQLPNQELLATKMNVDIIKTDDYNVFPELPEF

Test system: Myb1 (tobacco Myb homologue) (Nicotiana tabacum)
Assay: EMSA
Conditions: purified recombinant protein, label: 32P

CGGAATTCCCTAACTGACGCATCGATGGGA (double strand) [MBSI probe]
binding result (only very weakly bound, less effective competitor than MBSII): binds more weakly

CGGAATTCCCTCCCTGACGCATCGATGGGA (double strand) [MBSIm probe]
binding result (variant of MBSI probe): no binding

CGGAATTCTGTTGCCTATGCATCGATGGGA (double strand) [MBSIIm probe]
binding result (variant of MBSII probe): no binding

CGGAATTCTGTTTGGTATGCATCGATGGGA (double strand) [MBSII probe]
binding result (preferential binding, effectively self-competed by unlabeled MBSII, 200 ng Myb1, 2 ug poly(dI-dC), 4 C, pH 8.0): binds

The exact form of at least one protein or probe is not confirmed. A negative result means that nothing was seen under these conditions. A weaker result is weaker than the reference pair of the same experiment.
